Laboratory results taken from patent US9956243B2, “Combination treatment for acute myeloid leukemia (AML)” (Hoffmann-La Roche Inc., priority 2013, dated 2018).
Some entries share one result that the patent states for a list of compounds.

Test system: MOLM-13-luc.c4 (AML) human AML cells
Test: Antitumor efficacy and survival / increase in life span (ILS) in disseminated MOLM-13.luc.c4 AML model
Assay type: in vivo, SCID beige mice
Settings: iv compound I-B or oral compound (A), vs Vehicle control, dose not given in sentence
Procedure: Female SCID beige mice (10/group), obtained from Charles River Laboratories (Wilmington, Del.) were used when they were approximately 8-12 weeks old and weighed approximately 20-25 grams. The health of the mice was assessed daily by gross observation and analyses of blood samples taken from sentinel animals housed on shared shelf racks. All animals were allowed to acclimate and recover from any shipping-related stress for a minimum of 72 hours prior to experimental use. Autoclaved water and irradiated food (5058-ms Pico Lab mouse chow, Purina Mills, Richmond, Ind.) were provided ad libitum, and the animals were maintained on a 12 hour light and dark cycle. […]
For increased life span (ILS) assessment, animal body weights were measured two to three times per week, and animals were monitored daily for any clinical signs of toxicity or excessive tumor burden (i.e. hind limb paralysis or morbidity). In addition, progression of disease was monitored by in vivo bioluminescent imaging (BLI) using IVIS® Spectrum system. […] Images were captured by the IVIS® Spectrum system and data were collected and analyzed with Living Image 4.2.0 software (Caliper Life Sciences, Hopkinton, Mass.). Total photon fluxes (ph/s) representing luciferase activity within each fixed region of interest (ROI) covering whole tumors of individual mice were determined. […]

For `COc1cc(C(=O)O)ccc1NC(=O)[C@@H]1N[C@@H](CC(C)(C)C)[C@](C#N)(c2ccc(Cl)cc2F)[C@H]1c1cccc(Cl)c1F` [compound (A), 4-{[(2R,3S,4R,5S)-4-(4-Chloro-2-fluoro-phenyl)-3-(3-chloro-2-fluoro-phenyl)-4-cyano-5-(2,2-dimethyl-propyl)-pyrrolidine-2-carbonyl]-amino}-3-methoxy-benzoic acid], the “increase in lifespan (ILS) as monotherapy” value was “up to 37%”.
